Results are given in words; binding and its absence hold for the method and conditions named. Some results given as binding are weak or reduced against the parent protein; the word gives no strength.
Biological target: human TIM-3 (T-cell immunoglobulin mucin receptor 3) (human) (UniProt Q8TDQ0)
Experiment: SPR or Octet, human TIM-3 analyte

Protein sequences, listed by entry. Tags and fused reporters are not part of them. Residues count along the entry.
UniProt Q8TDQ0, residues 22-202: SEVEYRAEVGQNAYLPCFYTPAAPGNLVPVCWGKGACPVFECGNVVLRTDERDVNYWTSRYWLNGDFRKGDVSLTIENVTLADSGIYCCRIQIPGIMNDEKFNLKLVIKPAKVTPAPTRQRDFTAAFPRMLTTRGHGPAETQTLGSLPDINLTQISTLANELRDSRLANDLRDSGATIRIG

binding: binds
B1: anti-TIM-3 IgG1 antibody 66-6 (antibody, V domains shown)
VH: EVQLVESGGGLVQPGGSLRLSCAASGFTFSKYAMHWVRQAPGKGLEWVSAISGSGGSTYYADSVKGRFTISRDNSKNTLYLQMNSLRAEDTAVYYCARDLDYRFSGFDVWGQGTLVTVSS
VL: DIQMTQSPSSLSASVGDRVTITCQASQDISNYLNWYQQKPGKAPKLLIYDASNLETGVPSRFSGSGSGTDFTFTISSLQPEDIATYYCQQFAAIPLTFGQGTKVEIKR

Source: patent publication US20230287113A1
